From article PMC3913039
No constants are given. Whether binding was seen depends on the method and setting. In cells and extracts the contact can be indirect. Some entries that bind do so weakly or less than the wild type.

By UniProt entry, the sequences of proteins in these tests, tags left out. Residues count along the entry.
UniProt P38377: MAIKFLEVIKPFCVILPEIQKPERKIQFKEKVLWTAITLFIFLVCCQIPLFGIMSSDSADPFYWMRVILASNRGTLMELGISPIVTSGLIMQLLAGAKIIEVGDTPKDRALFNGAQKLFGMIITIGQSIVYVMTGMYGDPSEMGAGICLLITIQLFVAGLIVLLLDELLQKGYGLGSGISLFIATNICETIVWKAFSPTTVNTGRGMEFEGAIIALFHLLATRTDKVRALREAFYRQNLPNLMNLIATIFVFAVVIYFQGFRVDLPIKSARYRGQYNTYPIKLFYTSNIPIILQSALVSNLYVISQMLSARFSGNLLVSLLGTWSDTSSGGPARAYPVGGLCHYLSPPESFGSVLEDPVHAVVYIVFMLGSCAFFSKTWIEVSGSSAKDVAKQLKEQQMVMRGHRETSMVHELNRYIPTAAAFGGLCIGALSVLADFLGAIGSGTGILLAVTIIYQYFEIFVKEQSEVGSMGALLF
UniProt P60467: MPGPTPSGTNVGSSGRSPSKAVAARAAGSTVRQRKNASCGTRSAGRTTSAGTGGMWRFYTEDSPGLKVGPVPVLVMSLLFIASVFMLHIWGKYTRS
UniProt P01375, residues 1-123: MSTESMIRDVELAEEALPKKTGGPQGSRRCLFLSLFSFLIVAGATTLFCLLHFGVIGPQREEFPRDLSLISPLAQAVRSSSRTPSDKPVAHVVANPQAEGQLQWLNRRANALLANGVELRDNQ

Assays:
[1] = biological target: Sec61α of canine rough microsomes (dog (endogenous in canine rough microsomes)) (UniProt P38377); assay: cross-linking; with CT8 (1 μM, or titrated): microsome-targeted RNCs (canine rough microsomes) isolated through a high-salt sucrose cushion, 50 μM bis-maleimidohexane (BMH, ~13 Å) 30 min at 0°C; SDS-PAGE and autoradiography; partners identified by denaturing immunoprecipitation
[2] = biological target: Sec61β of canine rough microsomes (dog (endogenous in canine rough microsomes)) (UniProt P60467); assay: as above

- binding [1]: binds
- binding [2]: binds
Substance: wild-type TNFα 126-mer ribosome-nascent chain complex (from UniProt P01375 1-123) (domain or fragment)
